In the assay the target is T1, TSC1 (human (endogenous in 786-O and A498)) (UniProt Q92574).
T1 sequence: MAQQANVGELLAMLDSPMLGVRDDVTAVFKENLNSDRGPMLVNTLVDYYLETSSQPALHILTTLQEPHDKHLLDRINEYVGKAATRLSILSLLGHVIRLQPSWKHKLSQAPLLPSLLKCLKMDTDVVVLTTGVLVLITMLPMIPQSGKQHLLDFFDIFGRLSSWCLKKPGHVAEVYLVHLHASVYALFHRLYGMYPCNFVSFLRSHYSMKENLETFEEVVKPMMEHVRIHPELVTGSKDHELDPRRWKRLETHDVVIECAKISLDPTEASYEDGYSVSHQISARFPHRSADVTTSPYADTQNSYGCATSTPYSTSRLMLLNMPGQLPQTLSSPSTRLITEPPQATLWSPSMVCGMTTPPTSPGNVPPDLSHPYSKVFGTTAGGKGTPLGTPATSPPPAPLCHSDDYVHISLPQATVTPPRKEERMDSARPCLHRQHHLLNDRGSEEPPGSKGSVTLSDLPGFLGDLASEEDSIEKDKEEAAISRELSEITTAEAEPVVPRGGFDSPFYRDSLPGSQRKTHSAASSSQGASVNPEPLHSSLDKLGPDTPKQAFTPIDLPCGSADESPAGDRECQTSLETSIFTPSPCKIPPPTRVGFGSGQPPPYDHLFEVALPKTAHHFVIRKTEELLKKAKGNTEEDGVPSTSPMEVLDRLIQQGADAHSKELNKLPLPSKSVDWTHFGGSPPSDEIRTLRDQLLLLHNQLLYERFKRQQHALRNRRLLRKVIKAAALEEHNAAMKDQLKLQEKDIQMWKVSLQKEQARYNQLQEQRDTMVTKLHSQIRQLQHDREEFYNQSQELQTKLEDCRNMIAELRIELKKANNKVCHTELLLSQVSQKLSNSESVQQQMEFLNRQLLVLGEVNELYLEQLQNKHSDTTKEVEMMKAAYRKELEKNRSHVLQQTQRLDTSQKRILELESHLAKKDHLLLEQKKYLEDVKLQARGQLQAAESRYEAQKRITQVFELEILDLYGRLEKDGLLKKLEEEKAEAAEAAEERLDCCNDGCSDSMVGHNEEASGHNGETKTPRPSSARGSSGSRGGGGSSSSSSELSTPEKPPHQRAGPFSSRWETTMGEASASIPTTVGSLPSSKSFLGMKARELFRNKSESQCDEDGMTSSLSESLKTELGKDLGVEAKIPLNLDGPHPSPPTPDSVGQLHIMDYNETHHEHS
Briefly: affinity purification with mass spectrometry; 786-O cells treated with or without Palbociclib (5 uM) for 24 h; immunoprecipitation with IgG or TSC1 antibodies, mass spectrometry; Z score.

By UniProt entry, the sequences of proteins in these tests, tags left out.
UniProt Q9BY78: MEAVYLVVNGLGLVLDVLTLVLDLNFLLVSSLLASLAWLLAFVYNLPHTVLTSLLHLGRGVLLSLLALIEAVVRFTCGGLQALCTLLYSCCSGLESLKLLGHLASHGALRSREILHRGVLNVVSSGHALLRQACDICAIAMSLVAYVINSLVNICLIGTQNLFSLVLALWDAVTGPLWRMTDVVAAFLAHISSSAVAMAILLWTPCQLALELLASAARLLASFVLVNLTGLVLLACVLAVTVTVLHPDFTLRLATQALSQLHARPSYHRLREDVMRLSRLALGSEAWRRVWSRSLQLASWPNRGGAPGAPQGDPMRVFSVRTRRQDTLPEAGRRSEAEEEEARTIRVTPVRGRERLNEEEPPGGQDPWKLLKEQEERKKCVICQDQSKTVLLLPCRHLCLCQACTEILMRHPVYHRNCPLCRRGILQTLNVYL

Results are given in words; binding and its absence hold for the method and conditions named. In cells and extracts the contact can be indirect. These calls come from enrichment with a bait or labelling near it, and not all partners need be listed.

On to “RING finger protein 26 (RNF26) (from UniProt Q9BY78 1-433)”, for which the binding entry is on record as “binds”.
